In publication PMC11312810 one finds binding data, which are given here for 2 substances.

Amino acid sequences for entries named in this document (tags omitted).
UniProt Q9H4L4: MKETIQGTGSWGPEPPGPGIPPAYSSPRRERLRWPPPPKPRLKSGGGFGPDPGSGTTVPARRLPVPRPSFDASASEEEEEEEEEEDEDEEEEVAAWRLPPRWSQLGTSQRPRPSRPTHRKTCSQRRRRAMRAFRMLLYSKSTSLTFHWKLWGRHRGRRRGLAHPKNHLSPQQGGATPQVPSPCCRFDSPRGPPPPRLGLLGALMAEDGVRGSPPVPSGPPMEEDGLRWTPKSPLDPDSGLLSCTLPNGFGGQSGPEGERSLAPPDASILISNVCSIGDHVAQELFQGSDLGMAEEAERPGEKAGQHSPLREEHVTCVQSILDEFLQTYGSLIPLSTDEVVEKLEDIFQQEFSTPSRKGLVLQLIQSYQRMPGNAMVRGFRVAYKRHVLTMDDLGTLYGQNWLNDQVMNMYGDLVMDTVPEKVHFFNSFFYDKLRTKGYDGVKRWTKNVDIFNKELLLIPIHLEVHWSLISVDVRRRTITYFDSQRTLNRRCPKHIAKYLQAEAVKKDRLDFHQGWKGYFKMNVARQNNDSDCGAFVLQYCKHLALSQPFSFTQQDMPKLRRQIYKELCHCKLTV

These are yes or no findings as the source states them, for the method shown. In cells and extracts the contact can be indirect. Some binding calls cover weakened binding; strength is not graded here. For some assays here: Tags and fused reporters may be left off the sequences shown.

The target of one experiment is T1, FLAG-IRF4 (UniProt Q15306).
T1 sequence: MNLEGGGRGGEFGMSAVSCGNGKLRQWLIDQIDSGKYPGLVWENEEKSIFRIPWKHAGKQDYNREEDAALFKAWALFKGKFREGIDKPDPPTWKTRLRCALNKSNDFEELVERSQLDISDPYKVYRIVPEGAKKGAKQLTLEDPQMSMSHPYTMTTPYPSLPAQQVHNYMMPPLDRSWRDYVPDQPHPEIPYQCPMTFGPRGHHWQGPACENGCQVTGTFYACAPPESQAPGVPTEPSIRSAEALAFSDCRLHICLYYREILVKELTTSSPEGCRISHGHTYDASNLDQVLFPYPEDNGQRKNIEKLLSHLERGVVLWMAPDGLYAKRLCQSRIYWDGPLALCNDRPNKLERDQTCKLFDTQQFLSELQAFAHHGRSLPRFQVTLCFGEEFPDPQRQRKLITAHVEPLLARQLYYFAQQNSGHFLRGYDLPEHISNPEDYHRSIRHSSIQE
The experiment in a line: co-IP; HEK293T cells transfected with Myc-SENP3 and FLAG-IRF4 for 48 h; whole cell lysate with anti-Flag magnetic beads overnight at 4 C, washed 5 times; immunoblot with FLAG and Myc antibodies.

Experiment [1] deals with T2, IRF4 (endogenous, THP-1-derived macrophages) (human (endogenous in THP-1)) (UniProt Q15306).
T2 sequence: T1 sequence
Put plainly: co-IP; THP-1 cells after PMA 48 h (M0), then IL-4 and IL-13 48 h (M2); whole-cell lysates, IRF4 antibody on Protein A/G magnetic beads, 4 C 4 h; immunoblot with SUMO2/3, SENP3 and IRF4 antibodies.

Regarding “Myc-SENP3 (from UniProt Q9H4L4 1-574) (enzyme)”, the binding entry in the experiment with FLAG-IRF4 is on record as “binds”.

On to “SENP3 (endogenous, THP-1-derived macrophages) (from UniProt Q9H4L4 1-574) (enzyme)”, for which the binding result in experiment [1] is on record as “binds”.
